No constants are given. Whether binding was seen depends on the method and setting. In cells and extracts the contact can be indirect. Here binding means that the protein was enriched with, or labelled near, the bait; the list need not be complete. Tags and fused reporters may be left off the sequences shown.
The substances below were run against T1, GFP-Rab46 Q604L (constitutively active, GTP-locked) (human) (UniProt Q9BSW2) (assay: affinity purification with mass spectrometry).
T1 sequence: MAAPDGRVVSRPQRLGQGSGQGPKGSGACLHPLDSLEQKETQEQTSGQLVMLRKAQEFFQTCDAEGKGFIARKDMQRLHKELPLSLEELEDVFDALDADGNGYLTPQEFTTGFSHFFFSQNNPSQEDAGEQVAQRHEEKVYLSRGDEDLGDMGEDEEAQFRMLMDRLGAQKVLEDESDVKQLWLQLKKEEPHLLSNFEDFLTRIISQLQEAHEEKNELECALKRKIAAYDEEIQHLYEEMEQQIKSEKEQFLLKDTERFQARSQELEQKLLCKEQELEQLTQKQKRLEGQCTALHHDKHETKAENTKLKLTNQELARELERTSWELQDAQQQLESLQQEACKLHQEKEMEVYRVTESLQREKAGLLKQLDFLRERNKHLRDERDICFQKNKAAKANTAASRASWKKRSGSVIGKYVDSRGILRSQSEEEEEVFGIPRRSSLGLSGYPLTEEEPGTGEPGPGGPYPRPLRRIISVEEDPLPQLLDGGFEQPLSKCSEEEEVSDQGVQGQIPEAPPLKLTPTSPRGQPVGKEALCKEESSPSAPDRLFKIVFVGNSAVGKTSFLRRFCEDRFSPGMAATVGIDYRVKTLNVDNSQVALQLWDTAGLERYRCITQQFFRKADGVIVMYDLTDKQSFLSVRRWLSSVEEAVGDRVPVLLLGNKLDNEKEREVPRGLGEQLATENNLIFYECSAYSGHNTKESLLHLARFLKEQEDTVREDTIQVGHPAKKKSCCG

Amino acid sequences for entries named in this document (tags omitted).
UniProt Q00610: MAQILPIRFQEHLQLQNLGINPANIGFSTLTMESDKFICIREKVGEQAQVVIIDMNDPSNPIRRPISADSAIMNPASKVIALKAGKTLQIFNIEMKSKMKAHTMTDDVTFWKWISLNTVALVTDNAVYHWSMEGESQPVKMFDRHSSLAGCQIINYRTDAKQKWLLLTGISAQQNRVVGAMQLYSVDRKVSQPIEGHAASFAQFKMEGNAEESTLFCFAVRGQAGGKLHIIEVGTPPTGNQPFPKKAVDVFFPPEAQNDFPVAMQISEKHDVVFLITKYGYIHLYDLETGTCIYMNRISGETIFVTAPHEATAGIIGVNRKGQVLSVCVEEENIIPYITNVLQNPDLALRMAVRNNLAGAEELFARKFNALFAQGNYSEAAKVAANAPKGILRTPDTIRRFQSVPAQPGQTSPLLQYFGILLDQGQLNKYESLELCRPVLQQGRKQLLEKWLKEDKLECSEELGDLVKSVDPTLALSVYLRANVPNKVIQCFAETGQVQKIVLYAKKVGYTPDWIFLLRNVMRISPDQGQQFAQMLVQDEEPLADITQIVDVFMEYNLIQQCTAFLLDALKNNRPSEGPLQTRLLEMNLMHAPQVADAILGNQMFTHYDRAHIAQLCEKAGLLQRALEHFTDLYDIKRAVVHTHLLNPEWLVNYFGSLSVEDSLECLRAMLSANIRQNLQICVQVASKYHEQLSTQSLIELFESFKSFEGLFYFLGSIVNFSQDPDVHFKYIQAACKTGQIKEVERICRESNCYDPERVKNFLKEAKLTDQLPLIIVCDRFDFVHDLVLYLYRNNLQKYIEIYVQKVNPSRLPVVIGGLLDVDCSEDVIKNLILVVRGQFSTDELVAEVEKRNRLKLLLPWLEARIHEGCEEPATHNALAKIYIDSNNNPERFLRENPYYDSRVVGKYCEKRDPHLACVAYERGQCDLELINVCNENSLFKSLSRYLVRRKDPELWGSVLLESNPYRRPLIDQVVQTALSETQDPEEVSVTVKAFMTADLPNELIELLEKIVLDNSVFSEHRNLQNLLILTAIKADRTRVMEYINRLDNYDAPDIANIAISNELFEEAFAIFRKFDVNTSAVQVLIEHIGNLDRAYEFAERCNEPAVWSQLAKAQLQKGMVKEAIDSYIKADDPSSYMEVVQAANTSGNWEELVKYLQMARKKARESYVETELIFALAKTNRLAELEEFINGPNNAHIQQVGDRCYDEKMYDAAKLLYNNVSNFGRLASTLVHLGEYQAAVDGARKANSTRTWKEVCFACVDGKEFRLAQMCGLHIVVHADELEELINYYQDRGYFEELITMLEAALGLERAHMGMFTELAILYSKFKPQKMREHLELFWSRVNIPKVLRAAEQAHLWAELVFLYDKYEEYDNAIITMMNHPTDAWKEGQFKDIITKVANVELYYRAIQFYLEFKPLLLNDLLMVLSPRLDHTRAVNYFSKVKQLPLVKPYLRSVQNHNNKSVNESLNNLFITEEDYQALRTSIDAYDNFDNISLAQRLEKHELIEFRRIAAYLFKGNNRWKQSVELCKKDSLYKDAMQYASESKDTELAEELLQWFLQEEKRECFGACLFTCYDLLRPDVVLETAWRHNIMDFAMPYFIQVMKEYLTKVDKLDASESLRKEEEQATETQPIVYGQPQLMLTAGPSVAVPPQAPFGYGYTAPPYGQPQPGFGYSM
UniProt Q14204: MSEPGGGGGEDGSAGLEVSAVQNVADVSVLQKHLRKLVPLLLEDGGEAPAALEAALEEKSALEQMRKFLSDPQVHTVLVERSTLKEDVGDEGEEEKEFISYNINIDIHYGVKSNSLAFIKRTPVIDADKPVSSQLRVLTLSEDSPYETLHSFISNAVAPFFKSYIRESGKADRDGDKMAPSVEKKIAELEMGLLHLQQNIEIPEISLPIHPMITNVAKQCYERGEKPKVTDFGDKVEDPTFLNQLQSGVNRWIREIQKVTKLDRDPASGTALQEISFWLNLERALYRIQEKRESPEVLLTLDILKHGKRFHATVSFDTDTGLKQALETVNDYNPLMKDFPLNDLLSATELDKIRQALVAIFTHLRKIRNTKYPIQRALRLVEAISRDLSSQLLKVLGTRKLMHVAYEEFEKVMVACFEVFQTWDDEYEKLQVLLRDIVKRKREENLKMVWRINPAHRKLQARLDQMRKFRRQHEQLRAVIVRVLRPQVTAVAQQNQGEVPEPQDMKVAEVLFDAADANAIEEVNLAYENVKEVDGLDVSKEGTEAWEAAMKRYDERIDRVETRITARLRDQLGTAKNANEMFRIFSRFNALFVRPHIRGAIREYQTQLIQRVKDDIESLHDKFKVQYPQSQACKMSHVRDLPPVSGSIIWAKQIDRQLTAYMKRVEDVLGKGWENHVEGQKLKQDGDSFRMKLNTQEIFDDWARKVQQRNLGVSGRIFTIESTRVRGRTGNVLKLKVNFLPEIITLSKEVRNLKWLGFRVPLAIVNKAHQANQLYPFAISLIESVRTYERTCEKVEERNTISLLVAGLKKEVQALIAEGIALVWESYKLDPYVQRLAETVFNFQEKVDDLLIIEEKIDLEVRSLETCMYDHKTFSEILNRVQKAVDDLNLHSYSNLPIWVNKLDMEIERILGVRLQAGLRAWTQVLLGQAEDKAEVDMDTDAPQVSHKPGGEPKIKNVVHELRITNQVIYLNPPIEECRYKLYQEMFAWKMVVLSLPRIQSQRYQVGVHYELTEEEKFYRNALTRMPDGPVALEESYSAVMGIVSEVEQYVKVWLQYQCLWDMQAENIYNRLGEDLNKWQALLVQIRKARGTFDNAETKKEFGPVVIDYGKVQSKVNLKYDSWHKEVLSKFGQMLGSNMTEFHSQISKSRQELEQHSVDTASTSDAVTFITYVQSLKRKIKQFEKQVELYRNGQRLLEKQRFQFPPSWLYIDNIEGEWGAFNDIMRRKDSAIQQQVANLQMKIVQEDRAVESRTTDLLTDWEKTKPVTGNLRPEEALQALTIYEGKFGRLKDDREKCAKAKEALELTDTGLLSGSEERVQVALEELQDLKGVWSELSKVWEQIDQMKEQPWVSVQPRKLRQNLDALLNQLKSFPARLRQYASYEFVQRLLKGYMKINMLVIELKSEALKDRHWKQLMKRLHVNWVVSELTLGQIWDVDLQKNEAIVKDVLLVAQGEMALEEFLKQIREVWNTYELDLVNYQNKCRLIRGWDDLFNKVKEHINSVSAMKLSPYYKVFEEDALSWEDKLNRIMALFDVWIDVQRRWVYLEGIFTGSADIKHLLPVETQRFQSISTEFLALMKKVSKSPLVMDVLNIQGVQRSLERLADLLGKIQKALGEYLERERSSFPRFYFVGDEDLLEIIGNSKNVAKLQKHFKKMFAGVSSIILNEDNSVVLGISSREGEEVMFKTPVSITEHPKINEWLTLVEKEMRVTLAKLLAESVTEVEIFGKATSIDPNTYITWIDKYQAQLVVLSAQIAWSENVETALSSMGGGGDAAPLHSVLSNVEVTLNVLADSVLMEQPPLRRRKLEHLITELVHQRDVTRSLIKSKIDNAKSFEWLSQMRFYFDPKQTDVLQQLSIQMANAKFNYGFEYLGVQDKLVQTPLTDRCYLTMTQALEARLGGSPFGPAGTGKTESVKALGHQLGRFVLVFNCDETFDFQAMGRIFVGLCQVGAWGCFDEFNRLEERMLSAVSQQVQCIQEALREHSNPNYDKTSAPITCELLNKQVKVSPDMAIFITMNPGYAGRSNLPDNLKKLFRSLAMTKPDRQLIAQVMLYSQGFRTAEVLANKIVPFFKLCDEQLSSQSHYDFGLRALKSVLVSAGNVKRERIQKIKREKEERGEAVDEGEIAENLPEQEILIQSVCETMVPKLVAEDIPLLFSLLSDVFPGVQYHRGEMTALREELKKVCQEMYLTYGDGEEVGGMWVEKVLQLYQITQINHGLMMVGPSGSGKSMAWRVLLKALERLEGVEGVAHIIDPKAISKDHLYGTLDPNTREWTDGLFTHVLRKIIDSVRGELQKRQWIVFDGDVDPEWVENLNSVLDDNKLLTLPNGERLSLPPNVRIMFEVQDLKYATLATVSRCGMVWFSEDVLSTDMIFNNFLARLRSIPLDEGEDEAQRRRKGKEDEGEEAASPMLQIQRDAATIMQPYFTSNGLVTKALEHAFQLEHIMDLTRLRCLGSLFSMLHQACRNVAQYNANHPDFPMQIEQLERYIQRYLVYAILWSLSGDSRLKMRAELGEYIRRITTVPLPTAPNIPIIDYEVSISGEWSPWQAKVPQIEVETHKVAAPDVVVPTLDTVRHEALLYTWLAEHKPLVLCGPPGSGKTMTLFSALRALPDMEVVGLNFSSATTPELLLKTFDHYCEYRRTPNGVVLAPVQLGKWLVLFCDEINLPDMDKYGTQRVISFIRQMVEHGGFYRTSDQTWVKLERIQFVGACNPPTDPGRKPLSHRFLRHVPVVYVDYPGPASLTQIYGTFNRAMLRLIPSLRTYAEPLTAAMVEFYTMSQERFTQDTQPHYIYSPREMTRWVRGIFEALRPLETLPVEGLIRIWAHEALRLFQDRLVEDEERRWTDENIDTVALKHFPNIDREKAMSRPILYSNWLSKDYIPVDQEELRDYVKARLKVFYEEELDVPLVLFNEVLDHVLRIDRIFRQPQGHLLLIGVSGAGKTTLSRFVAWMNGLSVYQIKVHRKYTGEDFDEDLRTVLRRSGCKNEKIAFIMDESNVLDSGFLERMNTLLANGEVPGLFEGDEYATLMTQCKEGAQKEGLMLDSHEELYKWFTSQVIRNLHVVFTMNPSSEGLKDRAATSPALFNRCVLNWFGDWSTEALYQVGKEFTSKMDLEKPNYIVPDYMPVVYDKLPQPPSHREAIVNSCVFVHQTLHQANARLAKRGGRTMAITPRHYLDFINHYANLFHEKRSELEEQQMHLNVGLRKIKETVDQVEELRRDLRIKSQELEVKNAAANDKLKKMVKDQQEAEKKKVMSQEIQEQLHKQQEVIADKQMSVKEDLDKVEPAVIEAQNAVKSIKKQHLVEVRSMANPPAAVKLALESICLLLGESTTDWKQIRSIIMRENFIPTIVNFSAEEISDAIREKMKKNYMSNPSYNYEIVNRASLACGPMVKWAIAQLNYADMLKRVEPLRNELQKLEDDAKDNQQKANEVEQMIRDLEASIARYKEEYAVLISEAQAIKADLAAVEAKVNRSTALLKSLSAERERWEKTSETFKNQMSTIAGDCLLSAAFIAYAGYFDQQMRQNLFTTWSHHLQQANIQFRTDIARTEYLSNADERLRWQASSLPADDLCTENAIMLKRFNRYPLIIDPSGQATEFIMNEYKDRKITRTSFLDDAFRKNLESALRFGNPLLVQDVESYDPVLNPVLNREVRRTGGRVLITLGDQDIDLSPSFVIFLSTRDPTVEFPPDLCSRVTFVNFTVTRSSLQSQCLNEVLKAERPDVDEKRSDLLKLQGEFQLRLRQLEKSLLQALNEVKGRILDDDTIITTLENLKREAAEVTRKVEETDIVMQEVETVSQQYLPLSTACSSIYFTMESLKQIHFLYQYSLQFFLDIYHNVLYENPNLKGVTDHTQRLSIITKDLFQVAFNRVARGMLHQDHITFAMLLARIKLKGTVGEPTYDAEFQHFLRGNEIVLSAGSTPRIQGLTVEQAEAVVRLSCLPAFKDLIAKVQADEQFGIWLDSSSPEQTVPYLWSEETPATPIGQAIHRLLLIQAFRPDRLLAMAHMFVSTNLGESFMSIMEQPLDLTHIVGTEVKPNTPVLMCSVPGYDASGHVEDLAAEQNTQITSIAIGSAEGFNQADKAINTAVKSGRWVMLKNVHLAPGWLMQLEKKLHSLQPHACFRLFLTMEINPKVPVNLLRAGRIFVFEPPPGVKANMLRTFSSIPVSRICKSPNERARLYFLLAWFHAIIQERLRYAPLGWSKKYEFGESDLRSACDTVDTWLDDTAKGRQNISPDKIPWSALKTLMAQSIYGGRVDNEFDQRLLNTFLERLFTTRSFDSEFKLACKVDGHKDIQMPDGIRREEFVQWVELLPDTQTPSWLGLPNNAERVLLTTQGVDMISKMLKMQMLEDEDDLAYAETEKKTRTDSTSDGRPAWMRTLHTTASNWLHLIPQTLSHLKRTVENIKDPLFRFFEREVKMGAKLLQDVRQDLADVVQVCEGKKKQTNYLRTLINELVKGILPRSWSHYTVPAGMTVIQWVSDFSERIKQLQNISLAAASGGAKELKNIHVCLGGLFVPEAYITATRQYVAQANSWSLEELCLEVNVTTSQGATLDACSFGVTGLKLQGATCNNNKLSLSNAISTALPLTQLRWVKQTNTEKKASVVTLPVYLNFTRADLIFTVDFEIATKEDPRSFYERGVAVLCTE

binding, binds:
CLTC (from UniProt Q00610 1-1675)
COPA (from UniProt P53621)
CYFIP1 (from UniProt Q7L576 1-1253)
FLNA (from UniProt P21333 1-2647)
XPO1 (from UniProt O14980 1-1071)
dynein heavy chain (DHC), endogenous (from UniProt Q14204 1-4646)

— publication doi:10.1101/2020.07.06.189340
